Our source for the binding values is publication PMC11099189.

Protein sequences, listed by entry. Tags and fused reporters are not part of them.
UniProt P53350: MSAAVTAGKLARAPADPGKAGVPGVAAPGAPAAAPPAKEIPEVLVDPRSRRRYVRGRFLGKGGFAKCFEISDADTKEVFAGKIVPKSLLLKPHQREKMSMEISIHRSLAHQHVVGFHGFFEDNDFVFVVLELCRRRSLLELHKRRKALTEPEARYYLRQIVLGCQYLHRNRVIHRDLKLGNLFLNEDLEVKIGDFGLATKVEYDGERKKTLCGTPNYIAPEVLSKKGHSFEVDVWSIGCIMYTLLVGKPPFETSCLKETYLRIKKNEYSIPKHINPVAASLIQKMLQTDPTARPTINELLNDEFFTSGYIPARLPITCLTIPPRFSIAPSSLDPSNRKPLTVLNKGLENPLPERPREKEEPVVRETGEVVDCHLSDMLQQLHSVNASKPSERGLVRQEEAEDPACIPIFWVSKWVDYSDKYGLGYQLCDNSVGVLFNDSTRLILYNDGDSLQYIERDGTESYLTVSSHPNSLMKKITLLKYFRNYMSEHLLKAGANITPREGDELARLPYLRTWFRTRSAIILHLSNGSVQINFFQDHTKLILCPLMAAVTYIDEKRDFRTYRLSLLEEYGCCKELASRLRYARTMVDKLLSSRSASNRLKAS

Results are given in words; binding and its absence hold for the method and conditions named. Binding seen in cells or lysates may run through a third protein. Some results given as binding are weak or reduced against the parent protein; the word gives no strength. For some of these results: Where a sequence is shown, tags or fusion partners need not be part of it.

In assay [1] the target is T1, endogenous PKMYT1 (human (endogenous in Pa-Tu-8988T, YAPC, Pa-Tu-8902, DAN-G)) (UniProt Q99640).
T1 sequence: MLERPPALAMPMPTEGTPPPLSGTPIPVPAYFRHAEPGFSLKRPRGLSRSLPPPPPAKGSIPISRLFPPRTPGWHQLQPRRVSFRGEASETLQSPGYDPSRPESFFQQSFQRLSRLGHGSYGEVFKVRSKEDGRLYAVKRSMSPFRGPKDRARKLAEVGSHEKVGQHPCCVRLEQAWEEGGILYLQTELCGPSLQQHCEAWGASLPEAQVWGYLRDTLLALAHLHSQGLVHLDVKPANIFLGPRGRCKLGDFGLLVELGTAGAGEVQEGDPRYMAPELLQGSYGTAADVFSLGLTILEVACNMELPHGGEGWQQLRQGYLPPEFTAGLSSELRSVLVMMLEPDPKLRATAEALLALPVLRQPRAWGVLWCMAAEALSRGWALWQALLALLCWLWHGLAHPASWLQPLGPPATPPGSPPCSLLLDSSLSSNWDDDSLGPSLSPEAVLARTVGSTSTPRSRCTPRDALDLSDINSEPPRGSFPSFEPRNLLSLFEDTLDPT
Nature of the assay: co-IP; endogenous proteins in YAPC, Pa-Tu-8902 and DAN-G cells; 3-5 mg whole-cell lysate, 2 ug anti-PKMYT1, anti-PLK1 or IgG, protein G-sepharose, overnight; immunoblotting. (Immunoblotting shows a protein as a band on a membrane.)

In assay [2] the target is T2, Flag-tagged PKMYT1 (human) (UniProt Q99640).
T2 sequence: T1 sequence
The experiment in a line: co-IP; Pa-Tu-8988T cells transduced with Flag-PKMYT1, Flag-PLK1 or Flag lentivirus; 2.5 mg whole-cell lysate, 1 ug anti-Flag antibody, protein G-sepharose, overnight; immunoblotting.

In assay [3] the target is endogenous PLK1 (human (endogenous in Pa-Tu-8988T, YAPC, Pa-Tu-8902, DAN-G)) (UniProt P53350). Nature of the assay: co-IP; endogenous proteins in YAPC, Pa-Tu-8902 and DAN-G cells; 3-5 mg whole-cell lysate, 2 ug anti-PKMYT1, anti-PLK1 or IgG, protein G-sepharose, overnight; immunoblotting.
Another assay has as its target Flag-PLK1 (human) (UniProt P53350). Nature of the assay: co-IP; Pa-Tu-8988T cells transduced with Flag-PKMYT1, Flag-PLK1 or Flag lentivirus; 2.5 mg whole-cell lysate, 1 ug anti-Flag antibody, protein G-sepharose, overnight; immunoblotting.

“endogenous PLK1 (from UniProt P53350 1-603) (enzyme)”: the binding entry in assay [1] and in assay [2] was “binds” each time.

B1: endogenous PKMYT1 (enzyme, UniProt Q99640 1-499)
chain: T1 sequence
Regarding B1, the binding result (in assay [3]; in the assay with Flag-PLK1 (human)) was “binds” each time.
